Test results: PubChem BioAssay AID256 (DTP/NCI, 2004)
The list does not hold the whole screen: it gathers tests that were run many times, whatever their T/C, doses with no T/C, and many T/C values between a quarter and a half above the control. Other doses and runs of a compound stand elsewhere. T/C: endpoint of the treated group in % of that of the vehicle group. Some doses have a count of surviving animals in place of a T/C: the source files T/C as zero there, which appears to mark a toxic dose or a test without result, not a measured value. Some survivor counts are full or nearly so, which does not show that the dose was tolerated: the source hardly ever lists a survival T/C far under the control, and the zero likely stands for such cases as well. Survivors were counted at the toxicity check, usually on the fifth day, unless a day is given; later deaths do not show. Schedule codes are those of the source, taken here to give the interval after Q, in days (D) or hours (H), and the number of doses after X. Where survival is the endpoint, this PubChem deposit counts one and a half times the control or more as active, and values a quarter to a half above the control carry no call in these data; other NCI protocols may use other cut-offs. Some entries were tested several times; their values stand side by side, smallest first. Some T/C values are followed by the survivors on the day toxicity was checked, most often the fifth; without a count, all were alive then.

Tested on: CD2F1 mice, L1210 leukemia ip, survival T/C
Experiment: NCI In Vivo Anticancer Drug Screen. Data for tumor model L1210 Leukemia (intraperitoneal) in CD2F1 (CDF1) mice
Conditions: T/C endpoint: mean survival time, higher T/C = longer survival
In short: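 In this screen, transplantable tumors were grown in mice given either the compound or its vehicle. Results were expressed as the treated measurement relative to the control measurement.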

[1] = dose: 100.0 mg/kg/injection, schedule: Q04DX003 (ip), vehicle: saline with Tween-80
[2] = dose: 400.0 mg/kg/injection, schedule: Q04DX003 (ip), vehicle: saline with Tween-80
[3] = dose: 400.0 mg/kg/injection, schedule: Q01DX009 (ip), vehicle: saline with Tween-80

CO[C@@H](C=O)O[C@@H](C=O)CO
T/C (dose: 280.0 mg/kg/injection, schedule: Q01DX001 (ip), vehicle: saline): 130 % of control
T/C (dose: 560.0 mg/kg/injection, schedule: Q01DX001 (ip), vehicle: saline): 143 % of control [6 of 7 alive]

[Cl][Pd][Cl]
survivor count (dose: 25.0 mg/kg/injection, schedule: Q01DX009 (ip), vehicle: saline sonified): 2 of 6
survivor count (dose: 50.0 mg/kg/injection, schedule: Q01DX009 (ip), vehicle: saline sonified): 2 of 6
survivor count [1]: 6 of 6
survivor count (dose: 200.0 mg/kg/injection, schedule: Q04DX003 (ip), vehicle: saline with Tween-80): 4 of 6
survivor count [2]: 2 of 6

CCOC(=O)NP(=O)(N1CC1(C)C)N1CC1(C)C (stereo not drawn)
T/C (dose: 360.0 mg/kg/injection, schedule: Q01DX009 (ip), vehicle: saline): 145 % of control

O=C(O)C(O)c1ccccc1 (stereo not drawn)
survivor count (dose: 400.0 mg/kg/injection, schedule: Q04DX002 (ip), vehicle: saline): 1 of 3

CO[C@@]12[C@@H]3N[C@@H]3CN1C1=C(C(=O)C(NCC3CCCO3)=C(C)C1=O)[C@@H]2COC(N)=O (stereo partly drawn)
T/C (dose: 6.0 mg/kg/injection, schedule: Q01DX001 (ip), vehicle: distilled water + Tween-80): 125 % of control
T/C (dose: 12.0 mg/kg/injection, schedule: Q01DX001 (ip), vehicle: distilled water + Tween-80): 129 and 133 % of control
T/C (dose: 24.0 mg/kg/injection, schedule: Q01DX001 (ip), vehicle: distilled water + Tween-80): 139 and 145 % of control
T/C (dose: 36.0 mg/kg/injection, schedule: Q01DX001 (ip), vehicle: distilled water + Tween-80): 127 % of control

C=C1C[C@@H](O)C[C@@]2(C)C[C@@H]3OC(=O)C(=C)[C@@H]3C[C@H]12
survivor count [3]: 0 of 6

c1ccc(C(c2ccccc2)c2ccccc2)cc1
survivor count [2]: 6 of 6

CN(C)C(=O)Nc1nc2ccccc2s1
survivor count (dose: 200.0 mg/kg/injection, schedule: Q04DX002 (ip), vehicle: saline with Tween-80): 3 of 3

NC(CCC(=O)OCc1ccccc1)C(=O)OCc1ccccc1 (stereo not drawn)
survivor count (dose: 400.0 mg/kg/injection, schedule: Q04DX003 (ip), vehicle: saline): 2 of 6

ClCc1ccc2ccccc2n1
survivor count [3]: 2 of 6

CCOC1(OCC)C2C=CC1C(C#N)(C#N)C2(C#N)C#N
survivor count (dose: 300.0 mg/kg/injection, schedule: Q01DX001 (ip), vehicle: saline): 0 of 6

NC(=O)c1ccc[n+](CCc2c[nH]c3ccccc23)c1
survivor count (dose: 150.0 mg/kg/injection, schedule: Q04DX003 (ip), vehicle: saline with Tween-80): 5 of 6
survivor count (dose: 300.0 mg/kg/injection, schedule: Q04DX003 (ip), vehicle: saline with Tween-80): 1 of 6

CCCNC(=O)Oc1cccc(NC(=O)CC)c1
survivor count (dose: 200.0 mg/kg/injection, schedule: Q01DX009 (ip), vehicle: saline with Tween-80): 6 of 6

COc1cc(OC)c(OC)cc1/C=c1\[nH]c(=O)/c(=C/c2cc(OC)c(OC)cc2OC)[nH]c1=O
survivor count [1]: 6 of 6
survivor count [2]: 4 of 6

Cc1ccc(C(=O)[O][Hg][CH2]C2COC([CH2][Hg][O]C(=O)c3ccc(C)cc3)CO2)cc1 (stereo not drawn)
survivor count (dose: 50.0 mg/kg/injection, schedule: Q01DX009 (ip), vehicle: Klucel (hydroxypropylcellulose) (HPC)): 6 of 6
survivor count (dose: 100.0 mg/kg/injection, schedule: Q01DX009 (ip), vehicle: Klucel (hydroxypropylcellulose) (HPC)): 0 of 6

Nc1nc(N)c2cc(CNc3ccc(C(=O)NC(C(=O)O)C(=O)O)cc3)ccc2n1
survivor count (dose: 3.2 mg/kg/injection, schedule: Q01DX009 (ip), vehicle: saline): 5 of 6
survivor count (dose: 6.25 mg/kg/injection, schedule: Q01DX009 (ip), vehicle: saline with Tween-80): 2 of 6
survivor count (dose: 12.5 mg/kg/injection, schedule: Q01DX009 (ip), vehicle: saline with Tween-80): 1 of 6
survivor count (dose: 12.5 mg/kg/injection, schedule: Q04DX003 (ip), vehicle: saline with Tween-80): 6 of 6
survivor count (dose: 25.0 mg/kg/injection, schedule: Q01DX009 (ip), vehicle: saline with Tween-80): 2 of 6
survivor count (dose: 25.0 mg/kg/injection, schedule: Q04DX003 (ip), vehicle: saline with Tween-80): 4 of 6
survivor count (dose: 50.0 mg/kg/injection, schedule: Q04DX003 (ip), vehicle: saline with Tween-80): 5 of 6
